According to article PMC10937394:
Results are given in words; binding and its absence hold for the method and conditions named. In cells and extracts the contact can be indirect. Here binding means that the protein was enriched with, or labelled near, the bait; the list need not be complete. Tags and fused reporters may be left off the sequences shown.

Amino acid sequences for entries named in this document (tags omitted).
UniProt O54983: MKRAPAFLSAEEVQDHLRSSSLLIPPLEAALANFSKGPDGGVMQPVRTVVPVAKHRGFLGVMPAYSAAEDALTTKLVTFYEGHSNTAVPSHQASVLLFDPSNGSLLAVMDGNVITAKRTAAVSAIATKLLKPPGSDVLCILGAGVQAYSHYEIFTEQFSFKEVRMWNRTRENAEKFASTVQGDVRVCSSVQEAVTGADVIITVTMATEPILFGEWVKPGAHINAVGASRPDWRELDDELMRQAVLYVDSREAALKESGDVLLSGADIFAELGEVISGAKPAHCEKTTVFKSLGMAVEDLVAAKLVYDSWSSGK
UniProt P20357: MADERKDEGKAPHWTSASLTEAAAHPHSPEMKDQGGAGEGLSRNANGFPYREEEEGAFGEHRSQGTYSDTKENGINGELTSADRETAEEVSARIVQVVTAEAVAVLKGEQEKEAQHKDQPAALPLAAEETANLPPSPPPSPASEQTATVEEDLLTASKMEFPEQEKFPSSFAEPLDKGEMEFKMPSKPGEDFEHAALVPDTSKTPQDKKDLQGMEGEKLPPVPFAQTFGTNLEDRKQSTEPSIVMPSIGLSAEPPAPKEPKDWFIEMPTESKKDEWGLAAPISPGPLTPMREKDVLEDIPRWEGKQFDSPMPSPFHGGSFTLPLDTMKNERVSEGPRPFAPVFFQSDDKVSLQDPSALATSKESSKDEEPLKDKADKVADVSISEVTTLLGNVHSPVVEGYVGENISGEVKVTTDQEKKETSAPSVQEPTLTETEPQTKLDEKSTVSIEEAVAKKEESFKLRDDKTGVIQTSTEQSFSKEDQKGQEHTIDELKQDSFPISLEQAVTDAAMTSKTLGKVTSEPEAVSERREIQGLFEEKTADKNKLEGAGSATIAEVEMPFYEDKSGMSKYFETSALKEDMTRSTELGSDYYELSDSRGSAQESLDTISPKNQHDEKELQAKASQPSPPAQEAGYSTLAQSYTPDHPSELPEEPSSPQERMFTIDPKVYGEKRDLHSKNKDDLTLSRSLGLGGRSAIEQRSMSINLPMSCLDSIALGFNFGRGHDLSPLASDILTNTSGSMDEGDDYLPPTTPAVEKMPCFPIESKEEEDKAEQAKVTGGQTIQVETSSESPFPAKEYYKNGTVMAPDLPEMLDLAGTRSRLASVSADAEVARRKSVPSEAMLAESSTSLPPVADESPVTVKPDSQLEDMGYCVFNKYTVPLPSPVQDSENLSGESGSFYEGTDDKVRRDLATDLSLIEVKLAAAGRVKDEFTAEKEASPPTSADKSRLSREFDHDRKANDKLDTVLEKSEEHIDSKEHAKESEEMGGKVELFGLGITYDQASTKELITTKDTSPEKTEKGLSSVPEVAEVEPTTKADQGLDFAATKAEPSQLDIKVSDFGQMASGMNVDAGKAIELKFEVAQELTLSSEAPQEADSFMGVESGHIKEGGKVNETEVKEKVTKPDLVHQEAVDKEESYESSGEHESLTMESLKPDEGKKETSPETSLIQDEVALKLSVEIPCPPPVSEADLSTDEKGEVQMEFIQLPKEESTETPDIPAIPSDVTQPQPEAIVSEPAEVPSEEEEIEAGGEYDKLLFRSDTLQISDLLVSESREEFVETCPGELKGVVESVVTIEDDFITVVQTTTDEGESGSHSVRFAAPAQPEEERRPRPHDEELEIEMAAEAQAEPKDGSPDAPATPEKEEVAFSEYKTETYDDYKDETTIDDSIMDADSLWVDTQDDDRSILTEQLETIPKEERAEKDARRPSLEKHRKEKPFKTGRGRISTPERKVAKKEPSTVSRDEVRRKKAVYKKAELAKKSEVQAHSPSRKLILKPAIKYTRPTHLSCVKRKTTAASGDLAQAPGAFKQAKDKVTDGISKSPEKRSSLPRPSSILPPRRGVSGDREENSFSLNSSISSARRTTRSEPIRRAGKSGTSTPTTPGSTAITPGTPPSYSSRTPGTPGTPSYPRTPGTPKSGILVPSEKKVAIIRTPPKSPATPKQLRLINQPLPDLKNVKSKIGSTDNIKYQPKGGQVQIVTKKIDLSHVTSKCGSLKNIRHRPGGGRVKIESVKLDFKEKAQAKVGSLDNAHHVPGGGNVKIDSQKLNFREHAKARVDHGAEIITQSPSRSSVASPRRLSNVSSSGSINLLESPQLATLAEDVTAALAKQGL
UniProt P03921: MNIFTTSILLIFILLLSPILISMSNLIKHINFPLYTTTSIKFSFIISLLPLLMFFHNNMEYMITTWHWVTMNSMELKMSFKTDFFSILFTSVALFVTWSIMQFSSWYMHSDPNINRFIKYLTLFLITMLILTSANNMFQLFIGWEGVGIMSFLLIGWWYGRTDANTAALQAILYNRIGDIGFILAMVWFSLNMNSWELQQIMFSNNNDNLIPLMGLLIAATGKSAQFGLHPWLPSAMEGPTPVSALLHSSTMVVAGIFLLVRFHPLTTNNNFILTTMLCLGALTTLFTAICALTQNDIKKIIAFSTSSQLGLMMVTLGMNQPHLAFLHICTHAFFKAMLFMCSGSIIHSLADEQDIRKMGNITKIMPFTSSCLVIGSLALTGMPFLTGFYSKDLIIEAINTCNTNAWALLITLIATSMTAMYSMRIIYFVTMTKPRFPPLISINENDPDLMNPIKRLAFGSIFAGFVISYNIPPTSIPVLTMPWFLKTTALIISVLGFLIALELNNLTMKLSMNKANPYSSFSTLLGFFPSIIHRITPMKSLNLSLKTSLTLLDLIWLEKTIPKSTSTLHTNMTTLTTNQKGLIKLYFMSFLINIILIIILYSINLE

B1: DLGAP2 (protein, UniProt Q8BJ42 1-1059)
chain: MGTAQVLPGILQKHCCILPDRNTESQCTLCGEPEEEEGGDLAQPGLSFPGPAEEDIDQQYSWSPTQHFNEERYSPAPRNMKGLTGSRNQPQLCAGHTCGLSPPDDCEHPHDHMHHGSDVRQPYLLSPAESCPMDHHRCSPRSSVHSECMMMPVMLGDHVSSSTFPRMHYSSHYDTRDDCAMSHTSTKVNRIPANLLDQFEKQLPLHRDGFHTLQYQRASAATEQRNESPGRIRHLVHSVQKLFTKSHSLEGSSKSNINGTKSDSRVDDHHQSHLSKHSKRSKSKERKPESKHKSGMSSWWSSDDNLDSDSTYRTPSVAHRHHMDHIPHCYPEALQSPFGDLSLKTSKSNNDVKCSACEGLALTPDTRYMKRSSWSTLTVSQAKEAYRKSSLNLDKPLVHPEIKPSLRPCHYLQVPQDDWGAYPTGGKEEEIPCRRMRSGSYIKAMGDEESGESDSSPKTSPTVAIRPEPLLKPIIQRPLGDHQTQSYLQAATEVPVGHSLNPSINYNSPKFRSRNQSYMRAVSTLSQASCVSQMSEAEVNGQFESVCESVFSEVESQAMDALDLPGCFRTRSHSYLRAIQAGYSQDDECIPVMTSSNMTSTIRSTAAVSYTNYKKTPPPVPPRTTSKPLISVTAQSSTESTQDAYQDSRAQRMSPWPQDSRGGLYNSMDSLDSNKAMNLALETAAAQRHAADTQSSSTRSIDKAVLASKAEELLKSRCSSIGVQDSEFPDHQPYPRSDVETATDSDTESRGLREYHSVGVQVEDEKRHGRFKRSNSVTAAVQADLELEGFPGHVSMEDKGLQFGSSFQRHSEPSTPTQYGALRTVRTQGLFSYREDYRTQVDTSTLPPPDPWLEPSLDTVETGRMSPCRRDGSWFLKLLHTETKRMEGWCKEMEREAEENDLLEDILGKIRSAVGSAQLLMSQKFQQFYWLCQQNMDPSAMPRPTSQDLAGYWDMLQLSVEDVSMKFDELHQLKLNDWKIIESPERKEERKIPPPIPKKPPKGKFPITREKSLDLPDRQRQEARRRLMAAKRAASFRQNSATERADSIEIYIPEAQTRL
modifications: biotinylated by BioID2 in vivo
B2: DLGAP3 (protein, UniProt Q6PFD5 1-977)
chain: MRGYHGDRGSHPRPARFADQQHMDVGPAARAPYLLGSREAFSTEPRFCAPRAGLGHLSPEGPLSLSEGPSSVGPEGGPGGVGAGGGSSTFPRMYPGQGPFDTCEDCVGHPQGKGATRLPPTLLDQFEKQLPVQQDGFHTLPYQRGPAGPGPGPGSGAAPEARSESPSRIRHLVHSVQKLFAKSHSLEAPGKRDYNGPKADGRGSSGGDSYSGPGSGGTPTSHHHHHHHHHHHHQSRHGKRSKSKDRKGDGRHQTKATGWWSSDDNLDSDSGFLGGRPPGEPGGPFCLDAPDGSYRDLSFKGRSGGSEGRCLACTGMSMSLDGQSVKRSAWHTMMVSQGRDGYPGAGPGKGLLGPETKAKARTYHYLQVPQDDWGGYPTGGKDGEIPCRRMRSGSYIKAMGDEESGDSDGSPKTSPKALARRFASRRSSSVDTARINCCVPPRIHPRSSIPGYSRSLTTGQLSEEFNQQLEAVCGSVFGELESQAVDALDLPGCFRMRSHSYLRAIQAGCSQDDDCLPLLAAPASVSGRPGSSFNFRKAPPPIPPGSQAPPRISITAQSSTDSAHESFTAAEGPARRCSSADGLDGPTMGARTLELAPVPPRASPKPPTLIIKTIPGREELRSLARQRKWRPSIGVQVETISDSDTENRSRREFHSIGVQVEEDKRRARFKRSNSVTAGVQADLELEGLAGLATVATEDKALQFGRSFQRHASEPQPGPRAPTYSVFRTVHTQGQWAYREGYPLPYEPPATDGSPGPTPVPAPGPGSGRRDSWMERGSRSLPDSGRTSPCPRDGEWFIKMLRAEVEKLEHWCQQMEREAEDYELPEEILEKIRSAVGSTQLLLSQKVQQFFRLCQQSLDPTAFPVPTFQDLAGFWDLLQLSIEDVTLKFLELQQLKANSWKLLEPKEEKKVPPPIPKKPSRGRGVPVKERSLDSVDRQRQEARKRLLAAKRAASFRHSSATESADSIEIYIPEAQTRL
modifications: biotinylated by BioID2 in vivo
B3: BCR (protein, UniProt Q6PAJ1 1-1270)
chain: MVDSVGFAEAWRAQFPDSEPPRMELRSVGDIEQELERCKASIRRLEQEVNQERFRMIYLQTLLAKEKKSYDRQRWGFRRAAQPPDGAAEPRASAPRPPPAPADGADPAPVEESEARPDGEGSPSKGRSASARRPAAAASADRDDRGPPTSVAALRSNFEKIRKGPAQPGSADAEKPFYVNVEFHHERGLVKVNDKEVSDRISSLGSQAMQMERKKSQQSAGQGLGEAPRPHYRGRSSESSCGLDGDYEDAELNPRFLKDNLINANGGNRPPWPPLEYQPYQSIYVGGMMVEGEGKSPLLRSQSTSEQEKRLTWPRRSYSPRSFEDSGGGYTPDCSSNENLTSSEEDFSSGQSSRVSPSPTTYRMFRDKSRSPSQNSQQSFDSSSPPTPQCQKRHRQCQVVVSEATIVGVRKTGQIWPSDGDSTFQGEADSSFGTPPGYGCAADQAEEQRRHQDGLPYIDDSPSSSPHLSSKGRGSLASGALDPTKVSELDLEKGLEMRKWVLSGILASEETYLSHLEALLLPMKPLKAAATTSQPVLTSQQIETIFFKVPELYEIHKEFYDGLFPRVQQWSHQQRVGDLFQKLASQLGVYRAFVDNYGVAMETAEKCCQANAQFAEISENLRARSNKDVKDSTTKNSLETLLYKPVDRVTRSTLVLHDLLKHTPSSHPDHSLLQDALRISQNFLSSINEEITPRRQSMTVKKGEHRQLLKDSFMVELVEGARKLRHIFLFTDLLLCTKLKKQSGGKTQQYDCKWYIPLTDLSFQMVDELEALPNIPLVPDEELDALKIKISQIKSDIQREKRANKGSKVMERLRKKLSEQESLLLLMSPSMAFRVHSRNGKSYTFLISSDYERAEWRESIREQQKKCFKSFSLTSVELQMLTNSCVKLQTVHHIPLTINKEDDESPGLYGFLHVIVHSATGFKQSSNLYCTLEVDSFGYFVNKAKTRVYRDTTEPNWNEEFEIELEGSQTLRILCYEKCYNKMKMTKEDGESADKLMGKGQVQLDPQTLQDRDWQRTVIDMNGIEVKLSVKFTSREFSLKRMPSRKQTGVFGVKIAVVTKRERSKVPYIVRQCVEEIERRGMEEVGIYRVSGVATDIQALKAAFDVNNKDVSVMMSEMDVNAIAGTLKLYFRELPEPLFTDEFYPNFAEGIALSDPVAKESCMLNLLLSLPEANLLTFLFLLDHLKRVAEKETVNKMSLHNLATVFGPTLLRPSEKESKLPANPSQPITMTDSWSLEVMSQVQVLLYFLQLEAIPAPDSKRQSILFSTEV
modifications: biotinylated by BioID2 in vivo
B4: CLINT1 (protein, UniProt Q99KN9 1-631)
chain: MLIFMYLYVCVCTCTCAFSLCSTNVVMNYSEIESKVREATNDDPWGPSGQLMGEIAKATFMYEQFPELMNMLWSRMLKDNKKNWRRVYKSLLLLAYLIRNGSERVVTSAREHIYDLRSLENYHFVDEHGKDQGINIRQKVKELVEFAQDDDRLREERKKAKKNKDKYVGVSSDSVGGFRYNERYDPEPKSKWDEEWDKNKSAFPFSDKLGELSDKIGSTIDDTISKFRRKDREDSPERCSDSDEEKKARRGRSPKGEFKDEEETVTTKHIHITQATETTTTRHKRTANPSKTIDLGAAAHYTGDKASPDQNASTHTPQSSAKPSVPSSKSSGDLVDLFDGSSQSAGGSADLFGGFADFGSAAASGNFPSQATSGNGDFGDWSAFNQAPSGPVASGGELFGSAPQSAVELISASQPALGPPPAASNSADLFDLMGSSQATMTSSQSMNFSLMSTNTVGLGLPMSRSQNTDMVQKSASKTLPSTWSDPSVNISLDNLLPGMQPSKPQQPSLNTMIQQQNMQQPLNVMTQSFGAVNLSSPSNMLPVRPQTNPLLGGPMPMNMPGVMTGTMGMAPLGNSAGMSQGMVGMNMNMGMSASGMGLSGTMGMGMPSMAMPSGTVQPKQDAFANFANFSK
modifications: biotinylated by BioID2 in vivo
B5: GSTM1 (protein, UniProt P10649 1-218)
chain: MPMILGYWNVRGLTHPIRMLLEYTDSSYDEKRYTMGDAPDFDRSQWLNEKFKLGLDFPNLPYLIDGSHKITQSNAILRYLARKHHLDGETEEERIRADIVENQVMDTRMQLIMLCYNPDFEKQKPEFLKTIPEKMKLYSEFLGKRPWFAGDKVTYVDFLAYDILDQYRMFEPKCLDAFPNLRDFLARFEGLKKISAYMKSSRYIATPIFSKMAHWSNK
modifications: biotinylated by BioID2 in vivo

What follows are molecules tested against μ-crystallin–BioID2 (mouse) (UniProt O54983) (assay: proximity labelling; in vivo BioID2: AAV Crym-BioID2 in striatal astrocytes of mice, biotin 24 mg per kg subcutaneously for seven days; biotinylated proteins of the striatum lysate purified on NeutrAvidin agarose, LC-MS/MS; against the Crym-GFP control (log2FC > 1 and FDR < 0.05; SAINTexpress FDR cut-off 0.05); proximal proteins within ~10 nm are biotinylated).
For USP9X (from UniProt P70398 1-2559), the binding was “binds”.
MAP2 (from UniProt P20357 1-1828) was tested, and the binding was “binds”.
SYNGAP1 (from UniProt F6SEU4 1-1340) was tested, and the binding was “binds”.
MT-ND5 (from UniProt P03921 1-607) was tested, and the binding was “binds”.
In the case of B1, the binding is reported as “binds”.
In the case of B2, the binding is reported as “binds”.
With B3 the binding was “binds”.
For B4, the binding was “binds”.
In the case of B5, the binding is reported as “binds”.
